Results are given in words; binding and its absence hold for the method and conditions named. Binding seen in cells or lysates may run through a third protein. These calls come from enrichment with a bait or labelling near it, and not all partners need be listed.
Molecular target: T1, RBM15, endogenous in 293T cells (bait of the affinity purification) (human (endogenous in 293T)) (UniProt Q96T37)
T1 sequence: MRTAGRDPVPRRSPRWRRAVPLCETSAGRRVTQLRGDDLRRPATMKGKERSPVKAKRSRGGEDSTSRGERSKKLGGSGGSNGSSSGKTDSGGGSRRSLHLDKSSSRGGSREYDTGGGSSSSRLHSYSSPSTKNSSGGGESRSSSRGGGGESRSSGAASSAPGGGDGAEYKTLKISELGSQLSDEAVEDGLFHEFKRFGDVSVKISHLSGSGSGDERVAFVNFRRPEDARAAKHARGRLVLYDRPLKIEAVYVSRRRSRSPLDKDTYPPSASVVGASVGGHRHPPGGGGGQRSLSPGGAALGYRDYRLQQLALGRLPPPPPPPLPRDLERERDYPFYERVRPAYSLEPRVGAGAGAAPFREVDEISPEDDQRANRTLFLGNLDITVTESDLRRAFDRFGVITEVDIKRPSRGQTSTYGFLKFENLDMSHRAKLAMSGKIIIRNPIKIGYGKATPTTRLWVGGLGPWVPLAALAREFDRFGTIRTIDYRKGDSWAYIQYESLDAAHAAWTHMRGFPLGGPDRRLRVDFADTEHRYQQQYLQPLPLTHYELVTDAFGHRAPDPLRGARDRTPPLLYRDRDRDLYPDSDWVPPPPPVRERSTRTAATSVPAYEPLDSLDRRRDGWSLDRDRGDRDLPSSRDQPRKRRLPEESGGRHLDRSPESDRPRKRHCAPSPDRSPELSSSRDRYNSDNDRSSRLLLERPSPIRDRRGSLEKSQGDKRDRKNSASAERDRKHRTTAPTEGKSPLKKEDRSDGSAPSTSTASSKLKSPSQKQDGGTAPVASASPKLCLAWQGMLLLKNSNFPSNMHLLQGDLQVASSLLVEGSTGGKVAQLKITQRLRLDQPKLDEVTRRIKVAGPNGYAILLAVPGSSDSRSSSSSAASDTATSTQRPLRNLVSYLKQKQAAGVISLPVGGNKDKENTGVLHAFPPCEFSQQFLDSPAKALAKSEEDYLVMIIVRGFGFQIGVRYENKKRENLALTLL
Test: affinity purification with mass spectrometry; RBM15-associated proteins affinity purified from 293T cells, which express endogenous RBM15; mass spectrometry

Amino acid sequences for entries named in this document (tags omitted).
UniProt O75533: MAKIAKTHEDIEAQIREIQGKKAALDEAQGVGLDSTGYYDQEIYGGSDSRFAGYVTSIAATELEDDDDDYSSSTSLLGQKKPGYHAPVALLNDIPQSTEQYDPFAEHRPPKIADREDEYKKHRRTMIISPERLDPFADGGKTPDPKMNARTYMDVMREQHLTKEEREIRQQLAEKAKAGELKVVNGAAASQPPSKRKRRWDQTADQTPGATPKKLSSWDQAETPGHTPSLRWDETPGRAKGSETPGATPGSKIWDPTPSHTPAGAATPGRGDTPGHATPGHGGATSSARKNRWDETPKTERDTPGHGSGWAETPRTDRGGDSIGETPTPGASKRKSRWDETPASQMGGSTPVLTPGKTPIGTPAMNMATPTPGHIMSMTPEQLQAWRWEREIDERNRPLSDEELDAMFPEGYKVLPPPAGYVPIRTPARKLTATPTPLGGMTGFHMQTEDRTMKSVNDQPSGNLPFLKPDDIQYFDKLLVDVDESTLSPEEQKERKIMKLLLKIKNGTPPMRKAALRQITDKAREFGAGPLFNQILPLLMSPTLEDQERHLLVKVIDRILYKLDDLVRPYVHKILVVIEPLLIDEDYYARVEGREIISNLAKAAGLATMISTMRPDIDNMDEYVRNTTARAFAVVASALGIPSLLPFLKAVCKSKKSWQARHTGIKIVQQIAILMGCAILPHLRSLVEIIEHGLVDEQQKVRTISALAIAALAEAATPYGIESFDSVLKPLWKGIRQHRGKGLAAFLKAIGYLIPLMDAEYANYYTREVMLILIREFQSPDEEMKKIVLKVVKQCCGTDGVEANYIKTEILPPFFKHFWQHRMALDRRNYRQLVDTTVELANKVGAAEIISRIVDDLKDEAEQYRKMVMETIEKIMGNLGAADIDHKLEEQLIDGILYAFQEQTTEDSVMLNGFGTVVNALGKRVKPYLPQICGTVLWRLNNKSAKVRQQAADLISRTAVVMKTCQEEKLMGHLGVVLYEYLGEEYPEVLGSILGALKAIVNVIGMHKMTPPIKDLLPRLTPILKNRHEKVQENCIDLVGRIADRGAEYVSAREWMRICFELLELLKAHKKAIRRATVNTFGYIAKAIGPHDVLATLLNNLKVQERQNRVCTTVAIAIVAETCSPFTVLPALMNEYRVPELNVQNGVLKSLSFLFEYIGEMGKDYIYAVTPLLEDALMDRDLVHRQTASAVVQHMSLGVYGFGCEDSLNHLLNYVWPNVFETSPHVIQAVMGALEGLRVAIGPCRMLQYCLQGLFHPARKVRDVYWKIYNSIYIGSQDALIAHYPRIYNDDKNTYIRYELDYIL
UniProt Q9UBL3: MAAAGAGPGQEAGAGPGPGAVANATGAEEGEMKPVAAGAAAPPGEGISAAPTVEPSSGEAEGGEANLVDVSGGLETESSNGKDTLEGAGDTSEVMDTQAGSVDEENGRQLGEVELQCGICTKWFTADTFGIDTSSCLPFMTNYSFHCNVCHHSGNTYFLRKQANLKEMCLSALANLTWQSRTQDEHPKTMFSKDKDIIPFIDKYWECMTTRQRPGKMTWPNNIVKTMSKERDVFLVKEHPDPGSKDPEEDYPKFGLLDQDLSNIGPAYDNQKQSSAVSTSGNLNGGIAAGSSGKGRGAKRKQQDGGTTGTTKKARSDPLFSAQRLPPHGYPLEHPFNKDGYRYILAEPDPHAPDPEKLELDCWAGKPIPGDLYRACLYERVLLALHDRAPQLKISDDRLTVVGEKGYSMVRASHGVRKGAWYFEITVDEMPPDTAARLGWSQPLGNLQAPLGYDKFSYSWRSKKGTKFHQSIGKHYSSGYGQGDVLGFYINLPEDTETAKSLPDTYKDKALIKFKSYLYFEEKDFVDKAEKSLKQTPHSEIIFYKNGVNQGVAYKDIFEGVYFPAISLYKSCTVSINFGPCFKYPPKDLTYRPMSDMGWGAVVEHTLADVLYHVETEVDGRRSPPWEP

binding | Substance
binds | SF3B1, endogenous in 293T cells (from UniProt O75533 1-1304)
binds | ASH2 (from UniProt Q9UBL3 1-628)
